Data taken from publication PMC4404006.
No constants are given. Whether binding was seen depends on the method and setting. In cells and extracts the contact can be indirect. Some binding calls cover weakened binding; strength is not graded here.

The chains behind the UniProt entries cited, without tags or fusion partners.
UniProt O44126: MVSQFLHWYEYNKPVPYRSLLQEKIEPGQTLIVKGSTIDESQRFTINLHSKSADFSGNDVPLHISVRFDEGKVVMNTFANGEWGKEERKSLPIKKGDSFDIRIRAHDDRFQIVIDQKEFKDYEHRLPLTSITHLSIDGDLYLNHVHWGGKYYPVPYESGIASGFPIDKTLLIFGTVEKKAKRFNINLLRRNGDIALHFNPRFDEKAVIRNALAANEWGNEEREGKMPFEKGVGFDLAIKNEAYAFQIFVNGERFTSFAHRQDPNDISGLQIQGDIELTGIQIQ
UniProt A0A452G813: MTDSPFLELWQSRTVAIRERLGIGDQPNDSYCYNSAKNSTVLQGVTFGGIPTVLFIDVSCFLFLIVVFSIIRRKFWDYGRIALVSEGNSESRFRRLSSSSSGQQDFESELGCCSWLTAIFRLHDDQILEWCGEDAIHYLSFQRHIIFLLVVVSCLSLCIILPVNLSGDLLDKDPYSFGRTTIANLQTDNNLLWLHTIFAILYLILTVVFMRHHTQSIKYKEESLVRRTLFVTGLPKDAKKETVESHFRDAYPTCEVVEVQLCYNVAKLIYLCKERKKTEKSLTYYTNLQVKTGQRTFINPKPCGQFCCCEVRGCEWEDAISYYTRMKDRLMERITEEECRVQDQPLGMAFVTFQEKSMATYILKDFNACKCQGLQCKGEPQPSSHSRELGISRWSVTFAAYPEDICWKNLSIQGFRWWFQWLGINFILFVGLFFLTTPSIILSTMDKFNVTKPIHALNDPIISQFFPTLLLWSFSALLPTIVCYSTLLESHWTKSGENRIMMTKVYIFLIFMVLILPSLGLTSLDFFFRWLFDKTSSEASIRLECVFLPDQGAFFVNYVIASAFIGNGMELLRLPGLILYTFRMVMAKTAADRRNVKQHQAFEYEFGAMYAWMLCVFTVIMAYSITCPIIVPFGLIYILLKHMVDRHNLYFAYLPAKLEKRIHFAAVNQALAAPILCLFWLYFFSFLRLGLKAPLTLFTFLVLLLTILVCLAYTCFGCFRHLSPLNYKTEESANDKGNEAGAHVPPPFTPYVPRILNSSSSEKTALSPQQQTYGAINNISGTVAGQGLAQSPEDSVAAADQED

Experiments:
[1] = biological target: Transmembrane protein 63A (TMEM63A), endogenous in goat PBMC (goat (endogenous in goat PBMC)); test: co-IP; reverse: goat PBMC incubated with rHco-gal-m for 12 h and lysed; 1 mg lysate precipitated with rat anti-TMEM63A-NO IgG overnight at 4°C; blot with rat anti-Hco-Gal IgG; only the binder purified
[2] = biological target: Recombinant Haemonchus contortus galectin Hco-gal-m (rHco-gal-m) (Haemonchus contortus) (UniProt O44126); test: co-IP; forward: goat PBMC incubated with rHco-gal-m for 12 h and lysed (1% Triton X-100, 1% NP-40, 150 mM NaCl, pH 7.4); 1 mg lysate precipitated with rat anti-Hco-Gal IgG overnight at 4°C; blot with rat anti-TMEM63A-NO IgG; only the target purified

Recombinant Haemonchus contortus galectin Hco-gal-m (rHco-gal-m) (from UniProt O44126 1-283)
binding [1]: binds

Transmembrane protein 63A (TMEM63A), endogenous in goat PBMC (from UniProt A0A452G813 1-803)
binding [2]: binds
